# This is one part of the list.
# Sequences of proteins named here, by UniProt entry; tags and fusion partners are left off. A change or cut given only in a name is not applied to a line headed by its entry.
# UniProt Q70EL1: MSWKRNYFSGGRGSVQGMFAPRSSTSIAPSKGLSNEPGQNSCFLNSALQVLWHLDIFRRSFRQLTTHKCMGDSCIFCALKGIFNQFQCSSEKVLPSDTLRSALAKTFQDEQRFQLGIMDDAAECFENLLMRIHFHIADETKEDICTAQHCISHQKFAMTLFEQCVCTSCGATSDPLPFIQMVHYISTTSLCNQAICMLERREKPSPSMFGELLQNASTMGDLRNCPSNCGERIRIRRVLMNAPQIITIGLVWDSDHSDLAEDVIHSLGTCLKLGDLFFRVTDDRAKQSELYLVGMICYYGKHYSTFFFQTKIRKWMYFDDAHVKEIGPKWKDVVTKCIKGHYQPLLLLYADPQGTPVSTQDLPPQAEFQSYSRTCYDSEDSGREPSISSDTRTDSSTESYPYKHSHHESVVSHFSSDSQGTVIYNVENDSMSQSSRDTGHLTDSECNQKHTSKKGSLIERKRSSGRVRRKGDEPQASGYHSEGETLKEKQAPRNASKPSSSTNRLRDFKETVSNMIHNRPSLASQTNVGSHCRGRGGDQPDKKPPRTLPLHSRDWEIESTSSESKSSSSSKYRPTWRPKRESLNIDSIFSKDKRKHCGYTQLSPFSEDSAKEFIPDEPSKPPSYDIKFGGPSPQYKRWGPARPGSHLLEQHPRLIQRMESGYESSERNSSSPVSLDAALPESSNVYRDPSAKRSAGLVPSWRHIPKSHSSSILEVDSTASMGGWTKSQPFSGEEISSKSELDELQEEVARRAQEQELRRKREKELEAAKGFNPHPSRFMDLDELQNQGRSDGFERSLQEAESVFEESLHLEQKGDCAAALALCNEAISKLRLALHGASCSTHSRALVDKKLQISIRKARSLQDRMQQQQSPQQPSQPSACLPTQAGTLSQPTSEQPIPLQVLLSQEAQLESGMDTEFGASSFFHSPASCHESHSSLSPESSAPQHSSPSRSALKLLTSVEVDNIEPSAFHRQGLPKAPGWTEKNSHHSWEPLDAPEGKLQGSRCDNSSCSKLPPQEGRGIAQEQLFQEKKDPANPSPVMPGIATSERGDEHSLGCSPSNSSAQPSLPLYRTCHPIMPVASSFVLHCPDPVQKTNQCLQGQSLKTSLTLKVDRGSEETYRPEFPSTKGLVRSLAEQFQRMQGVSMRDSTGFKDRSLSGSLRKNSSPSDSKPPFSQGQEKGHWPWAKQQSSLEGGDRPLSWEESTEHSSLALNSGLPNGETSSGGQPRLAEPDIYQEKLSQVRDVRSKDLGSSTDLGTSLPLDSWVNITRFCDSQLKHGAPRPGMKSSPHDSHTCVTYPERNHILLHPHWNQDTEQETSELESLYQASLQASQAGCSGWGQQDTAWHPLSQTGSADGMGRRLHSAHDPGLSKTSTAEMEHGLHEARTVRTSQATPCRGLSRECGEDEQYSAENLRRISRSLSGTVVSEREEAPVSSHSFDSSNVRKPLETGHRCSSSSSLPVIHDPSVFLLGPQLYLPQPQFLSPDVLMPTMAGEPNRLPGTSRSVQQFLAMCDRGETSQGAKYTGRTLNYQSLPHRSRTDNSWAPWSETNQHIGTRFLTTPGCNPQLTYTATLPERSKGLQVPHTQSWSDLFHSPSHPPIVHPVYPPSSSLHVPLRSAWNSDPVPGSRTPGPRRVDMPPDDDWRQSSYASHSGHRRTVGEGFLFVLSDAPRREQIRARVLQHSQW
# UniProt P63027, whole entry, looked up: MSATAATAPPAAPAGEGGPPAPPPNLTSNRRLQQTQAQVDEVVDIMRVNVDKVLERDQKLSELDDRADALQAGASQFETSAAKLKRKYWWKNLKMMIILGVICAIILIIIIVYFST
# UniProt Q9NYU1: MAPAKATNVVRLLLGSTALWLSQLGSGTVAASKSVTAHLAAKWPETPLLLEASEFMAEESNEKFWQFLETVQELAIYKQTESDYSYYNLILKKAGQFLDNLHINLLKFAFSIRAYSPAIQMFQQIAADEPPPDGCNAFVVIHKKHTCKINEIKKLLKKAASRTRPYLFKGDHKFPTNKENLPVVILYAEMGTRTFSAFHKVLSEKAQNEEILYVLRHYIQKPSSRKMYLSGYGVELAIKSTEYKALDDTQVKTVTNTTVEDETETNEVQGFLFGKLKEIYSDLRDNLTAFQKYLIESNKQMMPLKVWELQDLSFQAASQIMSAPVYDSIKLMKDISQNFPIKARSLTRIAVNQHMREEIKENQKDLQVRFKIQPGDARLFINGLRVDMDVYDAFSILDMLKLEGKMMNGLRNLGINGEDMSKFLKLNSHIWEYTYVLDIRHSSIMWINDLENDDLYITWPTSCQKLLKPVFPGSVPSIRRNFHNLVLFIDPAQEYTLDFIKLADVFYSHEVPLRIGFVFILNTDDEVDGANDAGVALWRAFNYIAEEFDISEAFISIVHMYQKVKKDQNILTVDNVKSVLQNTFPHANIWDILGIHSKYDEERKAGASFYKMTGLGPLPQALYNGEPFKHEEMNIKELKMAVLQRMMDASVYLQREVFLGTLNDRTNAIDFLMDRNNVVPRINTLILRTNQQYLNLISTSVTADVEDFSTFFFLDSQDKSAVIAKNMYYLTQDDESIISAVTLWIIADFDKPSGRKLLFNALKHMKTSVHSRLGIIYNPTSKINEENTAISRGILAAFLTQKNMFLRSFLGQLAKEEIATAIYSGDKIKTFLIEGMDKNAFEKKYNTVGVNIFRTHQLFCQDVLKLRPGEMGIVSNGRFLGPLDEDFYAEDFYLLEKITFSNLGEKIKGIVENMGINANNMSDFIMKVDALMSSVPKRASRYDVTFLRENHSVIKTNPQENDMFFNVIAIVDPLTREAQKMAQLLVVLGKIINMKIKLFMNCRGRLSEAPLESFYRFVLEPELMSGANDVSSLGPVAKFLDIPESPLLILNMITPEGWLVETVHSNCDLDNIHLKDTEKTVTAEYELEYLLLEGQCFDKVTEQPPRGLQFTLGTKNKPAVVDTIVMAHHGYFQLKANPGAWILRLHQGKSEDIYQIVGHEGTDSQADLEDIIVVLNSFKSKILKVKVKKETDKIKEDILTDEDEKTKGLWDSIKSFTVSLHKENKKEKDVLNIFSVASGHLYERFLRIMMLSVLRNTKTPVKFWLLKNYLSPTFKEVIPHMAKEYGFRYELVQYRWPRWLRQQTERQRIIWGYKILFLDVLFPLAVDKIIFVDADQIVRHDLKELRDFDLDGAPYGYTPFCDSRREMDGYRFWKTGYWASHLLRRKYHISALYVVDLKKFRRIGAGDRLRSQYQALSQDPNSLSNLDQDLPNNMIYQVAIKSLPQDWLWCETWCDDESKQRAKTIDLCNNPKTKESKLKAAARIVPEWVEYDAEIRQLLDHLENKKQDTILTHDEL
# UniProt P14927: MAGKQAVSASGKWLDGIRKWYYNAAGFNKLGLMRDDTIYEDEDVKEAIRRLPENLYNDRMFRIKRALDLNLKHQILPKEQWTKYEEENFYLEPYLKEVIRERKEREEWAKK
# UniProt P61960, whole entry, looked up: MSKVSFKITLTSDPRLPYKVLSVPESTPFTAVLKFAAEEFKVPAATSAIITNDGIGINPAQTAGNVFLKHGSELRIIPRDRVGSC
# UniProt P15374: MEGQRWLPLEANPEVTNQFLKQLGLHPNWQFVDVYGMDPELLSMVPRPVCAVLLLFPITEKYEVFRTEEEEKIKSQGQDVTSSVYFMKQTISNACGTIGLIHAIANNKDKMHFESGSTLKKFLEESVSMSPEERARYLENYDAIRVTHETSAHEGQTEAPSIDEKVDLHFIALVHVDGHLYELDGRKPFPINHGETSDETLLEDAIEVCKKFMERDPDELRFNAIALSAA
# UniProt Q9H1C4: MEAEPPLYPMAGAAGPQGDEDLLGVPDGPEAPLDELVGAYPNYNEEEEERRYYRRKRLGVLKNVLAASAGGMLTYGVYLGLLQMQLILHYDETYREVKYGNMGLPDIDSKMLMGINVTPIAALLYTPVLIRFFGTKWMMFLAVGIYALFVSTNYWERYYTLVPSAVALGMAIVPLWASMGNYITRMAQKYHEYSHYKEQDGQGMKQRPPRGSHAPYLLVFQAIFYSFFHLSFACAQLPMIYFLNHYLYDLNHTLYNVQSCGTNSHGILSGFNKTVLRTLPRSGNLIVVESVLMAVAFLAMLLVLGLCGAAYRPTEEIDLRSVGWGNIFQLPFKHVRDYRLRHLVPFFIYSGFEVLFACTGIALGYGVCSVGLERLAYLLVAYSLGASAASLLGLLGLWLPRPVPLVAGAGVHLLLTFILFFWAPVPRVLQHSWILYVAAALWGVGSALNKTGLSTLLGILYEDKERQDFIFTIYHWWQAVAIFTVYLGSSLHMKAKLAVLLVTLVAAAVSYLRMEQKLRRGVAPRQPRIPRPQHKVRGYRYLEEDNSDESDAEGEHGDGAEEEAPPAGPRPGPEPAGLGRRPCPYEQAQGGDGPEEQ
# UniProt Q9Y5Z9: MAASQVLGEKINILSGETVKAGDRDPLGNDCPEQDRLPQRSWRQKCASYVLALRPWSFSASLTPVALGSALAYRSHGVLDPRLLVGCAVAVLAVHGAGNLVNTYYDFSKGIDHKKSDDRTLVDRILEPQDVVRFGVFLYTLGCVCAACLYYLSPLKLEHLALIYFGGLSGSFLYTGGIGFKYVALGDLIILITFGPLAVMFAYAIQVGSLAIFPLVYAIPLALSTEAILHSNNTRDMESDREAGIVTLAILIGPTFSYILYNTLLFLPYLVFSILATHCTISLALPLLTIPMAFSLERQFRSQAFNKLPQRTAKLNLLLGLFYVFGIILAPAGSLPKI
# UniProt Q96LJ8: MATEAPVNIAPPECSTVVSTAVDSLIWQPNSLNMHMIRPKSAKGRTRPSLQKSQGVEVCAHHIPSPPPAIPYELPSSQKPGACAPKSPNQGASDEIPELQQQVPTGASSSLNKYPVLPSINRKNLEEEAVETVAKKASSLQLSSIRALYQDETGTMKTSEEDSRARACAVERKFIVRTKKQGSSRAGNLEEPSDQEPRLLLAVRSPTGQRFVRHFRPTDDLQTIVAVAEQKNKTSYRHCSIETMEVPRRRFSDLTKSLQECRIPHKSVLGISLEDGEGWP
# UniProt C9J7I0: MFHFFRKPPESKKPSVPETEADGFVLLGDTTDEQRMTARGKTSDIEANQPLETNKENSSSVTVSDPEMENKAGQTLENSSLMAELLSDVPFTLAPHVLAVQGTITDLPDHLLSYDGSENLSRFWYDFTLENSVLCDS
# UniProt O94966: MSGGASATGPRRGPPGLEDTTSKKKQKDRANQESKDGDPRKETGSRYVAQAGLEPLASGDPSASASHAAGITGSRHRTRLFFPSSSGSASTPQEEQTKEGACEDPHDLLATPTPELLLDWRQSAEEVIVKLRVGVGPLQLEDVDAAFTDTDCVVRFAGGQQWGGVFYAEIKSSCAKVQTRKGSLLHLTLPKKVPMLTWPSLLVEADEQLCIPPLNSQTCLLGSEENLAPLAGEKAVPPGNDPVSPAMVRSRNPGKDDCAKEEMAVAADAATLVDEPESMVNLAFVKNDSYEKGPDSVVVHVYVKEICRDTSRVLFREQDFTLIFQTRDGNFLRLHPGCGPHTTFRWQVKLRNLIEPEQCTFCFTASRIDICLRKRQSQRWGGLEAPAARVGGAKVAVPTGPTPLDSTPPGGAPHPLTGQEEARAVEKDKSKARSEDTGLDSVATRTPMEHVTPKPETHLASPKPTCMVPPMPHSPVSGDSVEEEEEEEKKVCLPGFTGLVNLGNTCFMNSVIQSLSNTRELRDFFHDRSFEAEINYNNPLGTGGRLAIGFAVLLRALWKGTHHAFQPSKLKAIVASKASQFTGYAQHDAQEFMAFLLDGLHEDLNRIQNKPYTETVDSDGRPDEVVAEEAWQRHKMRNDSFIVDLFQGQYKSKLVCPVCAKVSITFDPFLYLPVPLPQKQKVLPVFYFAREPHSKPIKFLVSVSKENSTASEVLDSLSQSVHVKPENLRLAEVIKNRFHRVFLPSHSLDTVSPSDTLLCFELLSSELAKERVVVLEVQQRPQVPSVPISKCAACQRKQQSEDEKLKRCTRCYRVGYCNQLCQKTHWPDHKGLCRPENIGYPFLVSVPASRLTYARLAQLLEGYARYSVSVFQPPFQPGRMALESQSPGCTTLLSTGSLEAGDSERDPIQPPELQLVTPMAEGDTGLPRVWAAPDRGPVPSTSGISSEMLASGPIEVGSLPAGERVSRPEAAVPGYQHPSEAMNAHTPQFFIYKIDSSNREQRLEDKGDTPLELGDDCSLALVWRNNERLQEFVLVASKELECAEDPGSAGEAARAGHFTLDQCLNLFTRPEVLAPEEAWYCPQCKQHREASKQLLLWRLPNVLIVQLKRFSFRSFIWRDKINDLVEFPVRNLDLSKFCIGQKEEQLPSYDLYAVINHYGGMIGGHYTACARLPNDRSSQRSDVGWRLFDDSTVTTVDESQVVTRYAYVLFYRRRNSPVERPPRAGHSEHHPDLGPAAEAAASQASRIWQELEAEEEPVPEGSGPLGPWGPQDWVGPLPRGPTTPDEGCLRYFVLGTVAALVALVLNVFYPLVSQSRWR
# How the values were obtained:
# Experiment in all cases: log2 fold change, soluble protein after heating vs DMSO (PISA); higher = thermal stabilisation; K562 cells, 10 uM, 30 min; active = over 0.2 and 3.5 SD of the protein, either way, in both replicates (recomputed)
# bafetinib = compound: Cc1ccc(NC(=O)c2ccc(CN3CC[C@H](N(C)C)C3)c(C(F)(F)F)c2)cc1Nc1nccc(-c2cncnc2)n1 [bafetinib]
# How it was run: (§1)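 Quantification of soluble protein used TMTpro 16plex LC-MS/MS, with channel sums equalised. Samples were the supernatant after 21,000xg for 90 min of pooled aliquots from K562 cells (2×10^6 cells/mL) treated with 10 μM compound for 30 min, heated for 3 min over 48°C-58°C, and extracted in PBS with 0.5% NP-40 at 4°C. Values, from duplicates, describe thermal stability against control samples on a log2 fold-change scale.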
# [1] = compound: Cc1cccc(CC(=O)N2CCc3c2ccc(-c2cn(C)c4ncnc(N)c24)c3F)n1
# How it was run: as §1
# dasatinib = compound: Cc1nc(Nc2ncc(C(=O)Nc3c(C)cccc3Cl)s2)cc(N2CCN(CCO)CC2)n1 [dasatinib]
# How it was run: as §1
# tipifarnib = compound: Cn1cncc1[C@@](N)(c1ccc(Cl)cc1)c1ccc2c(c1)c(-c1cccc(Cl)c1)cc(=O)n2C [tipifarnib]
# How it was run: as §1
# mubritinib = compound: FC(F)(F)c1ccc(/C=C/c2nc(COc3ccc(CCCCn4ccnn4)cc3)co2)cc1 [mubritinib]
# How it was run: as §1
# [2] = compound: NC1(c2ccc(-c3nc4ccn5c(=O)[nH]nc5c4cc3-c3ccccc3)cc2)CCC1
# How it was run: as §1
# [3] = compound: NCC(=O)Nc1ccc(-n2nc(C(F)(F)F)cc2-c2ccc3c(ccc4ccccc43)c2)cc1
# How it was run: as §1
# vorinostat = compound: O=C(CCCCCCC(=O)Nc1ccccc1)NO [vorinostat]
# How it was run: as §1
# silmitasertib = compound: O=C(O)c1ccc2c(c1)nc(Nc1cccc(Cl)c1)c1ccncc12 [silmitasertib]
# How it was run: as §1
# [4] = compound: Cn1cc(-c2ccc3c(c2)CCN3C(=O)Cc2cccc(C(F)(F)F)c2)c2c(N)ncnc21
# How it was run: as §1
# [5] = compound: Cn1cc(-c2ccc3nnc(C(F)(F)c4ccc5ncccc5c4)n3n2)cn1
# How it was run: as §1
# [6] = compound: NC(=O)Nc1cc(-c2cccc(F)c2)sc1C(=O)N[C@H]1CCCNC1
# How it was run: as §1
# [7] = compound: NC(=O)c1cnc(N[C@@H]2CCCC[C@@H]2N)nc1Nc1cccc(-n2nccn2)c1
# How it was run: as §1
# entinostat = compound: Nc1ccccc1NC(=O)c1ccc(CNC(=O)OCc2cccnc2)cc1 [entinostat]
# How it was run: as §1
# citarinostat = compound: O=C(CCCCCCNC(=O)c1cnc(N(c2ccccc2)c2ccccc2Cl)nc1)NO [citarinostat]
# How it was run: as §1
# [8] = compound: O=C1NC(=O)C(c2cnc3ccccn23)=C1c1cn2c3c(cc(F)cc13)CN(C(=O)N1CCCCC1)CC2
# How it was run: as §1
# [9] = compound: c1cc(OCCN2CCCCC2)cc(-c2n[nH]c3ccc(-c4nnc[nH]4)cc23)c1
# How it was run: as §1
# nilotinib = compound: Cc1cn(-c2cc(NC(=O)c3ccc(C)c(Nc4nccc(-c5cccnc5)n4)c3)cc(C(F)(F)F)c2)cn1 [nilotinib]
# How it was run: as §1
# [10] = compound: Cc1nc(Nc2n[nH]c3c2CN(C(=O)N[C@H](CN(C)C)c2ccccc2)C3(C)C)c2sccc2n1
# How it was run: as §1
# [11] = compound: Cc1ncc(-c2ccnc(Nc3ccc(S(C)(=O)=O)cc3)n2)n1C(C)C
# How it was run: as §1
Target,log2 fold change (bafetinib),log2 fold change [1],log2 fold change (dasatinib),log2 fold change (tipifarnib),log2 fold change (mubritinib),log2 fold change [2],log2 fold change [3],log2 fold change (vorinostat),log2 fold change (silmitasertib),log2 fold change [4],log2 fold change [5],log2 fold change [6],log2 fold change [7],log2 fold change (entinostat),log2 fold change (citarinostat),log2 fold change [8],log2 fold change [9],log2 fold change (nilotinib),log2 fold change [10],log2 fold change [11]
USP54 (UniProt Q70EL1),inactive: -0.156,inactive: -0.361,inactive: -0.034,inactive: 0.361,inactive: 0.011,inactive: -0.14,inactive: 0.004,inactive: 0.242,inactive: 0.016,–,–,–,–,–,–,–,–,–,–,–
UTP3 (UniProt Q9NQZ2),active: 0.689,inactive: -0.048,inactive: 0.168,inactive: 0.212,inactive: -0.228,inactive: 0.286,inactive: 0.087,inactive: -0.06,inactive: 0.095,inactive: -0.208,inactive: -0.132,inactive: 0.093,inactive: 0.074,inactive: -0.019,inactive: -0.107,inactive: 0.103,inactive: -0.41,–,–,–
VAMP2 (UniProt P63027),inactive: 0.045,inactive: 0.065,inactive: -0.042,inactive: -0.132,inactive: 0.04,inactive: -0.008,inactive: 0.061,inactive: 0.091,inactive: 0.015,inactive: 0.234,inactive: 0.009,inactive: 0.225,inactive: 0.259,inactive: 0.163,inactive: 0.148,inactive: 0.169,inactive: 0.117,inactive: 0.014,inactive: 0.014,inactive: 0.017
UGGT2 (UniProt Q9NYU1),inactive: 0.043,inactive: -0.037,inactive: 0.053,inactive: 0.046,inactive: 0.04,inactive: -0.055,inactive: -0.032,inactive: -0.019,inactive: -0.035,inactive: -0.036,inactive: 0.02,inactive: -0.083,inactive: -0.089,inactive: -0.034,inactive: -0.11,inactive: 0.095,inactive: -0.23,inactive: -0.011,inactive: 0.015,inactive: 0.086
UHRF1BP1L (UniProt A0JNW5),inactive: 0.055,inactive: -0.002,inactive: -0.003,inactive: -0.065,inactive: 0.007,inactive: -0.028,inactive: 0.055,inactive: -0.035,inactive: 0.015,inactive: 0.036,inactive: 0.038,inactive: -0.004,inactive: -0.017,inactive: -0.024,inactive: -0.032,inactive: -0.052,inactive: -0.013,inactive: 0.105,inactive: 0.005,inactive: -0.029
UQCRB (UniProt P14927),inactive: -0.061,inactive: 0.012,inactive: 0.026,inactive: 0,inactive: 0.033,inactive: 0.015,inactive: 0.026,inactive: -0.046,inactive: -0.02,inactive: 0.037,inactive: 0.026,inactive: -0.016,inactive: -0.036,inactive: -0.032,inactive: 0.042,inactive: -0.006,inactive: -0.032,inactive: 0.019,inactive: 0.032,inactive: -0.036
UFM1 isoform 2 (UniProt P61960),inactive: -0.061,inactive: 0.089,inactive: 0.116,inactive: -0.016,inactive: -0.015,inactive: -0.087,inactive: -0.057,inactive: -0.057,inactive: -0.025,inactive: 0.045,–,inactive: -0.031,inactive: -0.114,inactive: -0.012,inactive: -0.044,inactive: -0.007,inactive: -0.218,inactive: -0.009,inactive: 0.023,inactive: 0.002
USP25 isoform 3 (UniProt Q9UHP3),inactive: -0.043,inactive: 0.029,inactive: -0.048,inactive: -0.024,inactive: 0.023,inactive: -0.071,inactive: -0.067,inactive: -0.019,inactive: 0.051,inactive: -0.038,inactive: 0.009,inactive: -0.038,inactive: -0.027,inactive: 0.001,inactive: -0.021,inactive: -0.03,inactive: 0.011,inactive: -0.021,inactive: -0.017,inactive: 0.018
USP30 (UniProt Q70CQ3),inactive: 0.065,–,inactive: -0.108,inactive: 0.023,inactive: 0.193,inactive: 0.076,inactive: -0.359,–,inactive: 0.233,inactive: -0.116,inactive: 0.332,inactive: -0.154,inactive: 0.09,inactive: 0.016,inactive: -0.03,inactive: 0.124,inactive: -0.148,inactive: -0.071,inactive: -0.059,inactive: 0.074
UCHL3 (UniProt P15374),inactive: -0.018,inactive: -0.022,inactive: -0.058,inactive: 0,inactive: -0.048,inactive: -0.094,inactive: -0.001,inactive: 0.036,inactive: -0.021,inactive: 0.034,inactive: -0.002,inactive: -0.024,inactive: -0.045,inactive: 0.019,inactive: 0.001,inactive: -0.074,inactive: -0.029,inactive: -0.059,inactive: -0.063,inactive: -0.008
UNC93B1 (UniProt Q9H1C4),inactive: -0.082,inactive: 0.006,inactive: 0.029,inactive: 0.042,inactive: 0.177,inactive: -0.079,–,inactive: -0.008,inactive: -0.049,inactive: -0.098,inactive: -0.047,inactive: -0.059,inactive: -0.025,inactive: 0.015,inactive: 0.017,inactive: -0.141,inactive: 0.045,inactive: 0.03,inactive: -0.147,inactive: 0.045
UBIAD1 (UniProt Q9Y5Z9),inactive: -0.004,inactive: -0.022,inactive: 0.176,inactive: 0.003,inactive: -0.144,inactive: 0.055,inactive: -0.122,inactive: -0.075,inactive: 0.013,inactive: 0.052,inactive: 0.006,inactive: -0.089,inactive: 0,inactive: -0.076,inactive: -0.301,–,inactive: 0.181,inactive: 0.074,inactive: 0.004,inactive: -0.004
UBXN10 (UniProt Q96LJ8),inactive: 0.002,inactive: -0.266,inactive: -0.032,inactive: 0.01,inactive: 0.067,inactive: 0.102,active: -0.426,inactive: 0.136,inactive: -0.006,inactive: -0.075,inactive: 0.021,inactive: 0.062,–,inactive: -0.069,inactive: -0.121,inactive: -0.031,inactive: 0.037,inactive: -0.085,inactive: 0.141,inactive: -0.098
UMAD1 (UniProt C9J7I0),inactive: -0.038,inactive: -0.301,inactive: 0.084,inactive: 0.323,inactive: 0.016,inactive: -0.097,–,inactive: -0.186,inactive: 0.056,inactive: -0.054,inactive: 0.386,–,–,–,inactive: 0.031,–,inactive: 0.077,inactive: 0.043,inactive: -0.023,inactive: 0.011
USP19 isoform 6 (UniProt O94966),inactive: 0.016,inactive: -0.004,inactive: -0.076,inactive: -0.038,inactive: 0.02,inactive: -0.033,inactive: 0.006,inactive: 0.042,inactive: -0.009,inactive: -0.029,inactive: -0.006,inactive: -0.015,inactive: -0.036,inactive: 0.022,inactive: 0.01,inactive: -0.05,inactive: -0.055,inactive: -0.017,inactive: -0.003,inactive: 0.008
URGCP (UniProt Q8TCY9),inactive: 0.09,inactive: -0.007,inactive: -0.04,inactive: 0.054,–,–,inactive: 0.014,inactive: 0.08,–,inactive: 0.026,inactive: -0.013,inactive: 0.01,inactive: -0.024,inactive: -0.115,–,inactive: -0.104,–,inactive: 0.096,inactive: -0.435,inactive: 0.254
USP16 (UniProt Q9Y5T5),inactive: 0.487,inactive: 0.027,inactive: 0.033,–,inactive: -0.162,inactive: 0.191,inactive: -0.047,inactive: 0.103,inactive: 0.135,inactive: -0.118,inactive: 0.07,–,inactive: -0.084,–,–,inactive: 0.224,–,inactive: 0.008,inactive: -0.047,inactive: -0.033
UBR1 (UniProt Q8IWV7),inactive: 0.126,inactive: -0.604,inactive: -0.165,–,inactive: 0.047,inactive: -0.069,–,inactive: 0.027,inactive: 0.197,inactive: -0.153,–,inactive: -0.206,inactive: -0.13,inactive: -0.076,–,inactive: 0.102,–,inactive: 0.085,inactive: -0.315,inactive: -0.126

# Whole records, quoted from the list. Values in the order: log2 fold change (bafetinib)	log2 fold change [1]	log2 fold change (dasatinib)	log2 fold change (tipifarnib)	log2 fold change (mubritinib)	log2 fold change [2]	log2 fold change [3]	log2 fold change (vorinostat)	log2 fold change (silmitasertib)	log2 fold change [4]	log2 fold change [5]	log2 fold change [6]	log2 fold change [7]	log2 fold change (entinostat)	log2 fold change (citarinostat)	log2 fold change [8]	log2 fold change [9]	log2 fold change (nilotinib)	log2 fold change [10]	log2 fold change [11]
# UGGT2 (UniProt Q9NYU1) in the list: inactive: 0.043	inactive: -0.037	inactive: 0.053	inactive: 0.046	inactive: 0.04	inactive: -0.055	inactive: -0.032	inactive: -0.019	inactive: -0.035	inactive: -0.036	inactive: 0.02	inactive: -0.083	inactive: -0.089	inactive: -0.034	inactive: -0.11	inactive: 0.095	inactive: -0.23	inactive: -0.011	inactive: 0.015	inactive: 0.086
# UFM1 isoform 2 (UniProt P61960) in the list: inactive: -0.061	inactive: 0.089	inactive: 0.116	inactive: -0.016	inactive: -0.015	inactive: -0.087	inactive: -0.057	inactive: -0.057	inactive: -0.025	inactive: 0.045	–	inactive: -0.031	inactive: -0.114	inactive: -0.012	inactive: -0.044	inactive: -0.007	inactive: -0.218	inactive: -0.009	inactive: 0.023	inactive: 0.002

# — the supplement of paper PMC10849652
